Test results taken from article doi:10.1101/2021.03.08.434331.
Results are given in words; binding and its absence hold for the method and conditions named. Binding seen in cells or lysates may run through a third protein. Sequences can lack the tags named with a protein. Values belong to the molecule of their own block, whether it stands above or below them.

Amino acid sequences for entries named in this document (tags omitted). A change or cut given only in a name is not applied to a line headed by its entry.
UniProt B7UM99, whole entry, looked up, stated change not applied: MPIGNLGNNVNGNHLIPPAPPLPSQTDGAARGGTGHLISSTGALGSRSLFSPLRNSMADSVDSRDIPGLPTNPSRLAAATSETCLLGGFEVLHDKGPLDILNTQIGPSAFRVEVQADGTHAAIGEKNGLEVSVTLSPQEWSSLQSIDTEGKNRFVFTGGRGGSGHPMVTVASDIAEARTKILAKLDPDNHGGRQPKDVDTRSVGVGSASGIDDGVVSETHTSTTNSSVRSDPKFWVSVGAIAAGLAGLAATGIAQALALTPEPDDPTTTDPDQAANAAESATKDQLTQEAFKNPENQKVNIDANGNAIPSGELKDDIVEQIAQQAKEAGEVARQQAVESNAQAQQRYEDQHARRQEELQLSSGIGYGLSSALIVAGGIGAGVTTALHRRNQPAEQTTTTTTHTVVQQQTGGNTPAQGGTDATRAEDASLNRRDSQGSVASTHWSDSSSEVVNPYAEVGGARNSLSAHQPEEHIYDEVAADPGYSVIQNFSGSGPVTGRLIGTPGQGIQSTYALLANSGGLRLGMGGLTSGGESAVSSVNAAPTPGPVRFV

What was measured:
[1] = molecular target: T1, GST-CBL-C (human) (UniProt Q9ULV8); assay: pull-down
T1 sequence: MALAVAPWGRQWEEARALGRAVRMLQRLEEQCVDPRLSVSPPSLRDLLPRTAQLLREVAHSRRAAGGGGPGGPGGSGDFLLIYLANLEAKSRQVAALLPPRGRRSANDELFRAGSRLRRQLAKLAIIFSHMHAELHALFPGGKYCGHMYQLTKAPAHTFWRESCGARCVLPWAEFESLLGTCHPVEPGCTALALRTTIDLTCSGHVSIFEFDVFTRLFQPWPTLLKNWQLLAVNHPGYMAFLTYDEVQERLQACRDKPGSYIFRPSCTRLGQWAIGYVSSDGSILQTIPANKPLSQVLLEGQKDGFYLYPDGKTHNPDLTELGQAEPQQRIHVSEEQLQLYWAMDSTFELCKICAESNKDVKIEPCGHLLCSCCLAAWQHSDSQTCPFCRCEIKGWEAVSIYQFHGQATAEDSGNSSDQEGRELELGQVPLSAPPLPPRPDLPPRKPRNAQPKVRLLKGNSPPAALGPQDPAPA

[2] = molecular target: GST-tagged Tir Y454F (Escherichia coli O127:H6 (strain E2348/69 / EPEC)) (UniProt B7UM99); assay: pull-down

binding [1]: no binding
Molecule: 6Myc-tagged Tir Y454F (from UniProt B7UM99 1-550)

binding [2]: no binding
B1: FLAG-tagged CBL-C WT (enzyme, UniProt Q9ULV8 1-474)
chain: T1 sequence
